Assay results from patent US20240301052A1 (LANOVA MEDICINES DEVELOPMENT, published 2024).
Results are given in words; binding and its absence hold for the method and conditions named. Some entries that bind do so weakly or less than the wild type.

T1: human SLC34A2 (human, UniProt O95436 1-690)
T1 sequence (looked up): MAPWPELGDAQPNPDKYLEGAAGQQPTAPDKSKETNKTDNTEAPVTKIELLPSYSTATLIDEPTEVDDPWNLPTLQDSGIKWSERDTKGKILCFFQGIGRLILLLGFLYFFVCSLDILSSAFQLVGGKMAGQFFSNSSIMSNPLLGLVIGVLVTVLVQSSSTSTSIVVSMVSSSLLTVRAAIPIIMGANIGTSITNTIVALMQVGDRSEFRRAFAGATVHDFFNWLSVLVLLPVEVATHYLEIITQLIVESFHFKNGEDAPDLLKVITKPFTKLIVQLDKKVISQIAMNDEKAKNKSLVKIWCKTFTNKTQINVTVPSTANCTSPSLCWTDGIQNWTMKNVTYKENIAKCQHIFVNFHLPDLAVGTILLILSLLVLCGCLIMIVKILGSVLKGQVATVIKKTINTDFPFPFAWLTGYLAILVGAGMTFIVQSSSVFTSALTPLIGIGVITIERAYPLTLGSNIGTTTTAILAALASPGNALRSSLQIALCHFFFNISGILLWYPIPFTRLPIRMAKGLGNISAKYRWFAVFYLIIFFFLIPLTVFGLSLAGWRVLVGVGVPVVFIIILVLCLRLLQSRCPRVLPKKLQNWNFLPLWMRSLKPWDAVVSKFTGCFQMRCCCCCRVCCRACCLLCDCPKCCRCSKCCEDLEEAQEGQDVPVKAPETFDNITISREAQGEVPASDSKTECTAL

T2: Rhesus SLC34A2 (Rhesus, UniProt F7HDA3 1-690)
T2 construct: whole, on cells
T2 sequence: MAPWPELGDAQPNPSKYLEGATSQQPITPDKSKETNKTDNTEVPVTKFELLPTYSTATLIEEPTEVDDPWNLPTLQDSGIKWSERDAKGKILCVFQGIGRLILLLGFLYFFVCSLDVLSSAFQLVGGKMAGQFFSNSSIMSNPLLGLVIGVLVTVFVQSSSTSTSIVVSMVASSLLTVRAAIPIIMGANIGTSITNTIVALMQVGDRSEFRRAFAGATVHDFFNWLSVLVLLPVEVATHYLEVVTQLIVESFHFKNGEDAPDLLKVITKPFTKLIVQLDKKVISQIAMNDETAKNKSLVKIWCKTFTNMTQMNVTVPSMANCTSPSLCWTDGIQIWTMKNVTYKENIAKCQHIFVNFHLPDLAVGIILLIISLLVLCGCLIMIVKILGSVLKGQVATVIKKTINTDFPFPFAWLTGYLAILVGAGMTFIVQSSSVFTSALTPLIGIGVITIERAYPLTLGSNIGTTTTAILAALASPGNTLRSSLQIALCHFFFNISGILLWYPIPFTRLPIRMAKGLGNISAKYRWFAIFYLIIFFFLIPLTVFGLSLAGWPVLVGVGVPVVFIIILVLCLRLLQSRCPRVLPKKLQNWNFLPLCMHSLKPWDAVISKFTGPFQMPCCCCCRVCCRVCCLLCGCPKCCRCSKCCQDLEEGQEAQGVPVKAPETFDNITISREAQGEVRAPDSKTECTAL


Assays:
human SLC34A2 [1] = target: T1, human SLC34A2; assay: FACS, OVCAR3 cells
Rhesus SLC34A2 = target: T2, Rhesus SLC34A2; assay: FACS, HEK293/Rhesus SLC34A2 cells
human SLC34A2 [2] = target: T1, human SLC34A2; assay: FACS, HEK293/human SLC34A2 cells
human SLC34A2 [3] = target: T1, human SLC34A2; assay: FACS, OVCAR3 and HEK293/human SLC34A2 cells
human SLC34A2 [4] = target: T1, human SLC34A2; assay: FACS, RMG-1 cells

binding (human SLC34A2 [1])	binding (Rhesus SLC34A2)	binding (human SLC34A2 [2])	binding (human SLC34A2 [3])	binding (human SLC34A2 [4])	Binder
binds	binds	binds			91C9F1.p1 hIgG1 (antibody, V domains shown, PTM-derisked chimeric, hIgG1; also called 91C9F1.pl hIgG1) VH: EVQLQQSGPELVKPGTSVKISCKTSGFFFTEYIIHWVKQSHGRSLEWIGGIIPNNDVTNYKQNFRGKAALTADKSSNTAYMELRSLTSEDSAVYYCARWRNAYYSAMDSWGQGTSVTVSS VL: DIVVTQSHKFMSTSLGDRVSITCTASQDVGTAVAWYQQKPGHSPKLLIYWASTRHTGVPERFTGSGSGTDFTLTITNVQSEDLADYFCQQYRTSPLTFGVGTKLELK
binds	binds	binds			30H9B8F9 VH_P1/VL hIgG1 (antibody, V domains shown, PTM-derisked chimeric, hIgG1; that P1 is the N=>S version follows from the humanized .p1 chains; also called 30H9B8F9.p1 hIgG1) VH: QVQLQQPGAELVKPGASVKMSCKTSGYTFTTNNMHWVKQTPGQGLEWIGAIYPGSGATAYNQKFKGKATLTADKSSSTAYMQLSSLTSEASAVYYCARGMYGHGAMDYWGQGTSVIVSS VL: DIVMTQSHKFMSRSVGDRVRITCKASQDVGTAVAWYQQKPGQSPKLLIYWATTRHSGVPDRFTGSGSGTDFIFTISNVQSEDLADYFCQQYSSNPLTFGAGTKLELK
binds	binds	binds			62G10E4G8 VH_P3/VL hIgG1 (antibody, V domains shown, PTM-derisked chimeric, hIgG1; that P3 is the NA version follows from the humanized .p3 chains; also called 62G10E4G8.p3 hIgG1) VH: QVQLQQSGAEVVKPGASVKMSCKASGYTFPSYITHWVKQTPGQGLEWIGAIYPGNADTSYIQKFKGKATLTADKSSSTAYMQLSSLTSEDSAVYYCARGTYGTSAWFTYWGQGTLVTVSA VL: DIVLTQSPATLSVTPGDSVSLSCRARQNIGNNLYWYQQKSHESPRLLIKYASQSISGIPSRFSGSGSGTDFTLTINSVETEDFGVYFCQQSFSWPLTFGAGTKLELK

Continued, binder first:

Binder	binding (human SLC34A2 [1])	binding (Rhesus SLC34A2)	binding (human SLC34A2 [2])	binding (human SLC34A2 [3])	binding (human SLC34A2 [4])
63A11D5B4 VH_P1/VL hIgG1 (antibody, V domains shown, PTM-derisked chimeric, hIgG1; that P1 is the SG version follows from the humanized .p1 chains; also called 63A11D5B4.p1 hIgG1) VH: QVQLQQPGAELVKPGASVKMSCRTSGYTFITYNMHWVKQTPGQGREWIGAIYPGSGDTSYNQKFKGKATLTADKSSSTAYMQLNSLTSEDSAVYYCSISTIITTGAVDYWGQGTSVTVAS VL: DIVMTQSHKFMSTSVGDRVSITCKASQDVGTAVAWYQQKAGQSPKLLIYWTSTRHTGVPDRFTGSGSGTDFTLIIRSLQSEDLADYFCQQYSRIPLTFGSGTKLEIK	binds	binds	binds		
xi95H11A1D8VH-1 hIgG1 (antibody, V domains shown, chimeric, hIgG1; the suffix VH-1 is not explained) VH: QVQLQQPGAELVKPGASVKMSCKTSGYTFTTNNMHWVKQTPGQGLEWIGAIYPGNGATAYNQKFKGKATLTADKSSSTAYMQLSSLTSEASAVYYCARGMYGHGAMDYWGQGTSVIVSS VL: DIVLTQSPATLSVTPGDSVSLSCRARQNIGNNLYWYQQKSNESPRLLIKYASQSISGIPSRFSGSGSGTDFTLTINSVETEDFGVYFCQQSFSWPLTFGAGTKLELK				binds	
xi90G10H7 hIgG1 (antibody, V domains shown, chimeric, hIgG1) VH: QVQLQQPGAVLVKPGASVKMSCKASGYTFTSYIIHWVKQTPGQGLEWVGAIYPGNGDASSIQKFKGKATLTVDKSSSTAYMQLSSLTSADSAVYYCARGHYYGSAAWFAYWGQGTLVTVSA VL: DILLTQSPAILSVSPGERVSFSCRASQNIGTGIHWYQQRTNGSLRLLIKYASESISGIPSRFSGSGSGTDFTLSINSVESEDIADYYCQQSNSWPLTFGAGTKLELK				binds	binds
